Laboratory results reported in the supplement of paper PMC10849652.
The other results are listed elsewhere or left out.

Amino acid sequences for entries named in this document (tags omitted). A change or cut given only in a name is not applied to a line headed by its entry.
UniProt Q13347, whole entry, looked up: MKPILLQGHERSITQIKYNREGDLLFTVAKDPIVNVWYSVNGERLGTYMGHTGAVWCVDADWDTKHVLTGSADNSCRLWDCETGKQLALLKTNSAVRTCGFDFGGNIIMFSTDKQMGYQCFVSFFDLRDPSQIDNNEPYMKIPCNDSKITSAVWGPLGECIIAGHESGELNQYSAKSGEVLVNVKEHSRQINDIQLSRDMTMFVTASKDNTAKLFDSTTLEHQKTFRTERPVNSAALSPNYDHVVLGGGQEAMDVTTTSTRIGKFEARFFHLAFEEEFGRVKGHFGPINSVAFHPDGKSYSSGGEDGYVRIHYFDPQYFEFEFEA
UniProt P23588, whole entry, looked up: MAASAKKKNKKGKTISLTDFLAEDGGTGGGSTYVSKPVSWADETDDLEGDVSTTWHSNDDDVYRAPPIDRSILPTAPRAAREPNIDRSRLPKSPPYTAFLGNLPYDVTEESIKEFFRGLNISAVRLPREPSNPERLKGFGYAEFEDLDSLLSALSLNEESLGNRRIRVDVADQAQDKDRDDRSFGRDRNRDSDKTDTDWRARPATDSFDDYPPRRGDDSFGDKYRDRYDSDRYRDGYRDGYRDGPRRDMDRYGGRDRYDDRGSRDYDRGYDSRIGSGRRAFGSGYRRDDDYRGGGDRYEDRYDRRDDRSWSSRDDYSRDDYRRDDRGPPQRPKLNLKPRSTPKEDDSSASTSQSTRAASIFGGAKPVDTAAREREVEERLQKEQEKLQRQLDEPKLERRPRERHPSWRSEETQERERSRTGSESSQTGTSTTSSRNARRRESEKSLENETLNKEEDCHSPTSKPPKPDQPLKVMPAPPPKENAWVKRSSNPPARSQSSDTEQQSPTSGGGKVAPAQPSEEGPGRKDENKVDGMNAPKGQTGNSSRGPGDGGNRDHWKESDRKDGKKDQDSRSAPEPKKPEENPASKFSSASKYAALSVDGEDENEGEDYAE
UniProt Q14249: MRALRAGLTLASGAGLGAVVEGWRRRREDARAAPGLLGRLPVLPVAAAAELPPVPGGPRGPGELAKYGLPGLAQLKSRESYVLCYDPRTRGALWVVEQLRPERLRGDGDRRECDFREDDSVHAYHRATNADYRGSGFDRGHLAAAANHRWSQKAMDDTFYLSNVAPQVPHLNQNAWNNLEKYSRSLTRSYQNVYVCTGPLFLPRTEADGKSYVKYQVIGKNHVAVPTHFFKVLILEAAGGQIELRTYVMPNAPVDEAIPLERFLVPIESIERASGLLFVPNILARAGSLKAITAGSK
UniProt O43768: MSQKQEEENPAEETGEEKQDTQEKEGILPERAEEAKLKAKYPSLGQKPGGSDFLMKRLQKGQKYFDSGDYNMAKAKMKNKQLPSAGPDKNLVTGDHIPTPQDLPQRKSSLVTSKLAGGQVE
UniProt Q5UCC4: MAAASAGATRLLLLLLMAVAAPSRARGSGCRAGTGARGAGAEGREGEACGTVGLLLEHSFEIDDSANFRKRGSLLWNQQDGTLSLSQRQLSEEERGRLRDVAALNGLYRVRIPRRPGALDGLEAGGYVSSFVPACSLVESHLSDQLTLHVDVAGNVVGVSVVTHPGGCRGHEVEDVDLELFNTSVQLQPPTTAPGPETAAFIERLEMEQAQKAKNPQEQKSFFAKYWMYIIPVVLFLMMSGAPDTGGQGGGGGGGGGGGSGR
UniProt Q8NFI3: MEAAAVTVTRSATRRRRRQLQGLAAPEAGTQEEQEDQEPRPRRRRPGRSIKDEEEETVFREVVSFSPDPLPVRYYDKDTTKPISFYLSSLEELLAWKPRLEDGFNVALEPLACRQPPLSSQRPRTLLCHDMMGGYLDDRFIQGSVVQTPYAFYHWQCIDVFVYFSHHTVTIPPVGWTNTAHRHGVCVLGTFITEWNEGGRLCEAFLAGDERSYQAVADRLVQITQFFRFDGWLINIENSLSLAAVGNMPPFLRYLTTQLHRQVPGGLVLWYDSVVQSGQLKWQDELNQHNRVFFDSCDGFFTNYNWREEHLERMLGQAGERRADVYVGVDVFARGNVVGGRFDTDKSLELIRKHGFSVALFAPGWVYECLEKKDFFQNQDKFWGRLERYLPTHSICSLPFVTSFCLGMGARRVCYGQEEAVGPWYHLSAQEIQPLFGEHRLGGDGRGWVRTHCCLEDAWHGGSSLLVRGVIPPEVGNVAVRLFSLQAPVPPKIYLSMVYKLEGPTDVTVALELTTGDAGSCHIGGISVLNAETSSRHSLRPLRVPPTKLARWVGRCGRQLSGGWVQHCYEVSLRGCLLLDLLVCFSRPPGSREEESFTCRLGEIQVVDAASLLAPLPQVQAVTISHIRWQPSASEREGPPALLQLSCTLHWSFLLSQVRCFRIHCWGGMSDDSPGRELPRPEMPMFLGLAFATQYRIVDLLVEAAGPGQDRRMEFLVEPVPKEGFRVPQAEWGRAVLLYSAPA
UniProt Q05639, whole entry, looked up: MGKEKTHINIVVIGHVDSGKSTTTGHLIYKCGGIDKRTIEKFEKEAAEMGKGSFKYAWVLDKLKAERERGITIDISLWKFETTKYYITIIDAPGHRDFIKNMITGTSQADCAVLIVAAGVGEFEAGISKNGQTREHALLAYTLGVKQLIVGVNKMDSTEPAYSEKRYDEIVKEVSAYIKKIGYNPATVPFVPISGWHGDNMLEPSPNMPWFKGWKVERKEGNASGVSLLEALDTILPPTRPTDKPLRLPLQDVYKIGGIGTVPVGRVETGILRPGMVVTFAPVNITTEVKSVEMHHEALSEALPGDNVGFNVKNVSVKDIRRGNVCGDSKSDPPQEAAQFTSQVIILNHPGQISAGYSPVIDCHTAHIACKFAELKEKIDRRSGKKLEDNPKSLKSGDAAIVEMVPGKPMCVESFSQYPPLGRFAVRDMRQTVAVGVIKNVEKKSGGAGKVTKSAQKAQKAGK
UniProt O43324: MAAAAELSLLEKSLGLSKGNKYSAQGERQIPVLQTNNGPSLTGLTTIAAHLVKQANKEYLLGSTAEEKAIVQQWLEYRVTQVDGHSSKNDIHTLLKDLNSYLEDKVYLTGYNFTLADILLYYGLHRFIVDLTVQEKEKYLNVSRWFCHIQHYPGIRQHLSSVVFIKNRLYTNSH
UniProt Q09472, whole entry, looked up: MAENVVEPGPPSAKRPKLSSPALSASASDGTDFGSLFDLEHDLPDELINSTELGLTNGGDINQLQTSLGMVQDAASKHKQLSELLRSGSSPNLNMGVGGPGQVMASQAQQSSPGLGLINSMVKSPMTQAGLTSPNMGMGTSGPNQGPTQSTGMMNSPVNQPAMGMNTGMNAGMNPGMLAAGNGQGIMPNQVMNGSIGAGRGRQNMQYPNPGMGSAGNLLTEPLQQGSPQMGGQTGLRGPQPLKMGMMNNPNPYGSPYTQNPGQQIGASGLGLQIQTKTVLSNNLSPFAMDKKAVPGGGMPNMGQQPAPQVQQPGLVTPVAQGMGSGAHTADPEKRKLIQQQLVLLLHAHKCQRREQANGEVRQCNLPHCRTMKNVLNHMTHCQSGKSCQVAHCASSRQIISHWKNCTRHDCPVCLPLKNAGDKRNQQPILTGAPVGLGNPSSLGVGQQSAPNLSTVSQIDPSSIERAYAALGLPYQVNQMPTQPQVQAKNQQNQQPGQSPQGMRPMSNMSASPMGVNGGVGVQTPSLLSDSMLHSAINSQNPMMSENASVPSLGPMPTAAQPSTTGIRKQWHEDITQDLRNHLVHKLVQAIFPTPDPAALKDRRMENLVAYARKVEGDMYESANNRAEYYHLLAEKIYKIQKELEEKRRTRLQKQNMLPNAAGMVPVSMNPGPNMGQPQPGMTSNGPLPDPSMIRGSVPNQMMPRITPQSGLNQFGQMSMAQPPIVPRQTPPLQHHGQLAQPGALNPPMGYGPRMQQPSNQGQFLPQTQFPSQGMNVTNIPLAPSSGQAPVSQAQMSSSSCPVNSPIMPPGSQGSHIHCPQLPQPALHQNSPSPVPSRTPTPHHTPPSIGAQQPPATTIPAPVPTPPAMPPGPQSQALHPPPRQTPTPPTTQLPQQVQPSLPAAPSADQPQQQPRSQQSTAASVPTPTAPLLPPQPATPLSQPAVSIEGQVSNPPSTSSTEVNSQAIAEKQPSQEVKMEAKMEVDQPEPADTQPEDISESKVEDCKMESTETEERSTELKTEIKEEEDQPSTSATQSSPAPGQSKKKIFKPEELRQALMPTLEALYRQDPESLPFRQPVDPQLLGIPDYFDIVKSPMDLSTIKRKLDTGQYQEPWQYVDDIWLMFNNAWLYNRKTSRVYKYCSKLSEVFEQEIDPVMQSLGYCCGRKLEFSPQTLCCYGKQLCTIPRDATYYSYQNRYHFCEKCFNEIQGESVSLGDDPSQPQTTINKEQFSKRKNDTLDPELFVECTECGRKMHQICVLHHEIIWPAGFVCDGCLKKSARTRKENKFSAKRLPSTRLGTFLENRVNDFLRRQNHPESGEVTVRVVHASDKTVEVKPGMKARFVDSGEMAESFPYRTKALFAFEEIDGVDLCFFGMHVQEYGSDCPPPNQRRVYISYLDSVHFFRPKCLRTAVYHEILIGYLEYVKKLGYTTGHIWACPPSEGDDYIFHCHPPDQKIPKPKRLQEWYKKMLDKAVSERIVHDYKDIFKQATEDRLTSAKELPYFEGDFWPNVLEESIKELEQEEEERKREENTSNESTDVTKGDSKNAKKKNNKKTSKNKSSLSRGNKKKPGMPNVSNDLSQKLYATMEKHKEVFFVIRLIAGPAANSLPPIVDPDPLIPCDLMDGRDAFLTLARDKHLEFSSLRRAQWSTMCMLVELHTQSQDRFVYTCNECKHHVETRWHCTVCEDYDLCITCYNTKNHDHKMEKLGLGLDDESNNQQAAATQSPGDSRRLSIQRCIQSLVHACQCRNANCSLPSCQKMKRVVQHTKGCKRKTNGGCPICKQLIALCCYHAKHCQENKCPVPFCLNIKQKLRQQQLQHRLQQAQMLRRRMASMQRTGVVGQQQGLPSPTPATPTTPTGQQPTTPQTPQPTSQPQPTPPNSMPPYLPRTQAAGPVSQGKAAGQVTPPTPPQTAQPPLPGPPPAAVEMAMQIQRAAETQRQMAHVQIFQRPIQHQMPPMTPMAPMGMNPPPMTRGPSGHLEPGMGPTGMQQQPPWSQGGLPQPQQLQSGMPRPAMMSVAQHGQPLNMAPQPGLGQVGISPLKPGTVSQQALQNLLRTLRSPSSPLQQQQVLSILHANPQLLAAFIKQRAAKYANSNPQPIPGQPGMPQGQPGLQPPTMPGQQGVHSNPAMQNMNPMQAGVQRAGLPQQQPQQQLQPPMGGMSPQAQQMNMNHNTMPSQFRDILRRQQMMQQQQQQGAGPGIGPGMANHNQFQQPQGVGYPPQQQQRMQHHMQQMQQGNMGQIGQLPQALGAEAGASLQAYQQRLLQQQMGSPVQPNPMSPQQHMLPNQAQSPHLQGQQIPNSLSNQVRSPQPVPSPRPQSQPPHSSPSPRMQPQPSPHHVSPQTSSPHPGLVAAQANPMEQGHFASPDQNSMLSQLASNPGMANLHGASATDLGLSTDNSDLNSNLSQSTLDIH
UniProt Q92979: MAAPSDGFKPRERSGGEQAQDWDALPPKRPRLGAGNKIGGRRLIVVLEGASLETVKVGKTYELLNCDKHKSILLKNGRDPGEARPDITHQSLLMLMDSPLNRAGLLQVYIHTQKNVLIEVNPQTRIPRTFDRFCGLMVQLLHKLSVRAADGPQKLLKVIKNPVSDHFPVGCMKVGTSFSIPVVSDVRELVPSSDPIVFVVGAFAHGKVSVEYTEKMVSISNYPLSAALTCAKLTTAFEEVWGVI
UniProt Q13144, whole entry, looked up: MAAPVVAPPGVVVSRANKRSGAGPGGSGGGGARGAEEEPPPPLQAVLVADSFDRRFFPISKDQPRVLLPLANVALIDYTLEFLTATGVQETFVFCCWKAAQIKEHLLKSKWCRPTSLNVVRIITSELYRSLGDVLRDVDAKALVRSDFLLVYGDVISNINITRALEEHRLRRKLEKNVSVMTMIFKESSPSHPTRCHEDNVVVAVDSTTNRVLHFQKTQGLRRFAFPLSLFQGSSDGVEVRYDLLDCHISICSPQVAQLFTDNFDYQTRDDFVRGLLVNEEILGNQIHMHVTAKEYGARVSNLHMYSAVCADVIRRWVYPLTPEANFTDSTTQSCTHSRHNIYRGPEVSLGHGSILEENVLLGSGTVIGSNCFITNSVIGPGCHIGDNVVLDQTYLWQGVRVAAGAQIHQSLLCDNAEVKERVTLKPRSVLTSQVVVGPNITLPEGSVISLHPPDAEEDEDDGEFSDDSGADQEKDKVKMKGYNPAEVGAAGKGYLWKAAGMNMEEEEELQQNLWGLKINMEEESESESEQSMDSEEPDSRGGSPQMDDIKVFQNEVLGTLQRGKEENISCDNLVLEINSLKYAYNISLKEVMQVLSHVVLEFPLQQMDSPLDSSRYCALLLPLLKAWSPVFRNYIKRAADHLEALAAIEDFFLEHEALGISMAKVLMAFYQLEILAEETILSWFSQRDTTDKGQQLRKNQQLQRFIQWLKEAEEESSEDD

How the values were obtained:
Experiment in all cases: log2 fold change, soluble protein after heating vs DMSO (PISA); higher = thermal stabilisation; K562 cells, 10 uM, 30 min; active = over 0.2 and 3.5 SD of the protein, either way, in both replicates (recomputed)
saracatinib = compound: CN1CCN(CCOc2cc(OC3CCOCC3)c3c(Nc4c(Cl)ccc5c4OCO5)ncnc3c2)CC1 [saracatinib]
In short: (§1)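 Aliquots of K562 cells (2×10^6 cells/mL) treated with 10 μM compound for 30 min were heated for 3 min over 48°C-58°C. After pooling and extraction in PBS with 0.5% NP-40 at 4°C, soluble protein from a 21,000xg, 90 min spin was quantified by TMTpro 16plex LC-MS/MS with channel sums equalised. Thermal stability is expressed against control samples, from duplicates, as a log2 fold change.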

sotrastaurin = compound: CN1CCN(c2nc(C3=C(c4c[nH]c5ccccc45)C(=O)NC3=O)c3ccccc3n2)CC1 [sotrastaurin]
In short: as §1

alvocidib = compound: CN1CC[C@H](c2c(O)cc(O)c3c(=O)cc(-c4ccccc4Cl)oc23)[C@H](O)C1 [alvocidib]
In short: as §1

Tubastatin A = compound: CN1CCc2c(c3ccccc3n2Cc2ccc(C(=O)NO)cc2)C1 [Tubastatin A]
In short: as §1

[1] = compound: CNC(=O)C1=CC=CC=C1NC2=NC(=NC=C2Cl)NC3=C(C=C(C=C3)N4CCOCC4)OC
In short: as §1

defactinib = compound: CNC(=O)c1ccc(Nc2ncc(C(F)(F)F)c(NCc3nccnc3N(C)S(C)(=O)=O)n2)cc1 [defactinib]
In short: as §1

rucaparib = compound: CNCc1ccc(-c2[nH]c3cc(F)cc4c3c2CCNC4=O)cc1 [rucaparib]
In short: as §1

[2] = compound: CNc1nc(-c2ccc3c(N)n[nH]c3c2)cc(N2C[C@@H](C(=O)NC3CCCCC3)CC[C@H]2C)n1
In short: as §1

encorafenib = compound: COC(=O)N[C@@H](C)CNc1nccc(-c2cn(C(C)C)nc2-c2cc(Cl)cc(NS(C)(=O)=O)c2F)n1 [encorafenib]
In short: as §1

[3] = compound: COC(=O)[C@H](CCSC)NC(=O)C1=C(C=C(C=C1)NC[C@H](CS)N)C2=CC=CC=C2
In short: as §1

[4] = compound: COC1=CC=C(C=C1)CN2C=CC3=C2C=C(C=C3)C(=O)NO
In short: as §1

filanesib = compound: CON(C)C(=O)N1N=C(c2cc(F)ccc2F)S[C@@]1(CCCN)c1ccccc1 [filanesib]
In short: as §1

zotarolimus = compound: CO[C@H]1C[C@@H]2CC[C@@H](C)[C@@](O)(O2)C(=O)C(=O)N2CCCC[C@H]2C(=O)O[C@H]([C@H](C)C[C@@H]2CC[C@H](n3cnnn3)[C@H](OC)C2)CC(=O)[C@H](C)/C=C(\C)[C@@H](O)[C@@H](OC)C(=O)[C@H](C)C[C@H](C)/C=C/C=C/C=C/1C [zotarolimus]
In short: as §1

idasanutlin = compound: COc1cc(C(=O)O)ccc1NC(=O)[C@@H]1N[C@@H](CC(C)(C)C)[C@](C#N)(c2ccc(Cl)cc2F)[C@H]1c1cccc(Cl)c1F [idasanutlin]
In short: as §1

alisertib = compound: COc1cc(Nc2ncc3c(n2)-c2ccc(Cl)cc2C(c2c(F)cccc2OC)=NC3)ccc1C(=O)O [alisertib]
In short: as §1

[5] = compound: COc1cc2nc(-c3cc(F)ccc3O)nc(N[C@@H]3CNC[C@H]3C(C)(C)O)c2cc1OC
In short: as §1

gefitinib = compound: COc1cc2ncnc(Nc3ccc(F)c(Cl)c3)c2cc1OCCCN1CCOCC1 [gefitinib]
In short: as §1

[6] = compound: COc1cccc2cc(-c3nc([C@H]4CC[C@H](C(=O)O)CC4)n4ncnc(N)c34)[nH]c12
In short: as §1

lapatinib = compound: CS(=O)(=O)CCNCc1ccc(-c2ccc3ncnc(Nc4ccc(OCc5cccc(F)c5)c(Cl)c4)c3c2)o1 [lapatinib]
In short: as §1

pictilisib = compound: CS(=O)(=O)N1CCN(Cc2cc3nc(-c4cccc5[nH]ncc45)nc(N4CCOCC4)c3s2)CC1 [pictilisib]
In short: as §1

Measured: log2 fold change

EIF3I (UniProt Q13347)
inactive: saracatinib -0.103 | sotrastaurin -0.16 | alvocidib -0.004 | Tubastatin A 0.101 | [1] -0.017 | defactinib -0.022 | rucaparib 0.213 | [2] 0.084 | encorafenib 0.127 | [3] -0.084 | [4] 0.027 | filanesib 0.041 | zotarolimus 0.072 | idasanutlin 0.04 | alisertib -0.041 | [5] 0.028 | gefitinib -0.041 | [6] -0.146 | lapatinib 0.031 | pictilisib -0.003

EIF4B (UniProt P23588)
inactive: saracatinib 0.011 | sotrastaurin 0.03 | alvocidib -0.023 | Tubastatin A -0.013 | [1] -0.021 | defactinib -0.014 | rucaparib 0.006 | [2] -0.027 | encorafenib -0.034 | [3] 0.022 | [4] 0.02 | filanesib -0.03 | zotarolimus -0.014 | idasanutlin 0.061 | alisertib -0.028 | [5] 0.012 | gefitinib 0.009 | [6] 0.028 | lapatinib -0.001 | pictilisib -0.017

EIF5 (UniProt P55010)
inactive: saracatinib 0.014 | sotrastaurin -0.009 | alvocidib -0.118 | Tubastatin A -0.013 | [1] 0.039 | defactinib -0.08 | rucaparib -0.035 | [2] -0.019 | encorafenib 0.046 | [3] -0.044 | [4] -0.021 | filanesib -0.032 | zotarolimus 0.039 | idasanutlin -0.035 | alisertib 0.003 | [5] 0.027 | gefitinib 0.028 | [6] 0.004 | lapatinib -0.026 | pictilisib 0.011

ENDOG (UniProt Q14249)
inactive: saracatinib -0.022 | sotrastaurin -0.002 | alvocidib 0.007 | Tubastatin A 0.019 | [1] 0.02 | defactinib 0.04 | rucaparib 0.004 | [2] -0.028 | encorafenib 0.02 | [3] -0.037 | [4] 0.019 | filanesib -0.045 | zotarolimus -0.015 | idasanutlin -0.089 | alisertib -0.016 | [5] 0.102 | gefitinib 0.04 | [6] -0.039 | lapatinib 0 | pictilisib -0.013

EIF2B3 (UniProt Q9NR50)
inactive: saracatinib -0.011 | sotrastaurin -0.042 | alvocidib -0.047 | Tubastatin A 0.045 | [1] -0.013 | defactinib 0.044 | rucaparib 0.134 | [2] 0.082 | encorafenib 0.119 | [3] -0.017 | [4] 0.033 | filanesib 0.022 | zotarolimus 0.035 | idasanutlin 0.002 | alisertib -0.013 | [5] -0.016 | gefitinib 0.008 | [6] -0.044 | lapatinib 0.025 | pictilisib 0.02

ENSA isoform 3 (UniProt O43768)
inactive: saracatinib 0.009 | sotrastaurin 0.061 | alvocidib 0.012 | Tubastatin A -0.014 | [1] -0.029 | defactinib -0.028 | rucaparib 0.003 | [2] -0.027 | encorafenib -0.006 | [3] 0.022 | [4] -0.057 | filanesib -0.009 | zotarolimus -0.015 | idasanutlin 0.038 | alisertib -0.052 | [5] -0.009 | gefitinib 0.018 | [6] 0.051 | lapatinib -0.015 | pictilisib -0.006

EMC10 (UniProt Q5UCC4)
inactive: saracatinib 0.013 | sotrastaurin 0.005 | alvocidib -0.057 | Tubastatin A 0.012 | [1] -0.008 | defactinib -0.043 | rucaparib -0.012 | [2] -0.041 | encorafenib -0.106 | [3] -0.04 | [4] -0.052 | filanesib -0.034 | zotarolimus 0.023 | idasanutlin -0.025 | alisertib -0.135 | [5] 0.033 | gefitinib 0.048 | [6] 0.063 | lapatinib 0 | pictilisib -0.008

ELOB (UniProt Q15370)
inactive: saracatinib -0.034 | sotrastaurin -0.039 | alvocidib -0.014 | Tubastatin A -0.022 | [1] 0.035 | defactinib -0.023 | rucaparib -0.066 | [2] -0.004 | encorafenib 0.026 | [3] -0.004 | [4] 0.015 | filanesib -0.006 | zotarolimus 0.042 | idasanutlin -0.032 | alisertib -0.078 | [5] 0.022 | gefitinib 0.009 | [6] 0.007 | lapatinib -0.037 | pictilisib 0.038

ENGASE (UniProt Q8NFI3)
inactive: saracatinib 0.043 | sotrastaurin 0.038 | alvocidib 0.017 | Tubastatin A 0.03 | [1] -0.034 | defactinib -0.046 | rucaparib 0 | [2] -0.097 | encorafenib -0.019 | [3] 0.007 | [4] 0.025 | filanesib 0.028 | zotarolimus 0.061 | idasanutlin -0.094 | alisertib 0.014 | [5] -0.005 | gefitinib 0.006 | [6] 0.028 | lapatinib 0.066 | pictilisib 0.021

EIF6 (UniProt P56537)
inactive: saracatinib 0.05 | sotrastaurin 0.018 | alvocidib 0.059 | Tubastatin A -0.003 | [1] -0.031 | defactinib 0.04 | rucaparib 0.01 | [2] -0.03 | encorafenib -0.023 | [3] 0.051 | [4] 0.007 | filanesib -0.009 | zotarolimus -0.054 | idasanutlin 0.059 | alisertib -0.114 | [5] 0.054 | gefitinib 0.013 | [6] 0.014 | lapatinib -0.07 | pictilisib -0.017

EEF1A2 (UniProt Q05639)
inactive: saracatinib -0.055 | sotrastaurin 0.031 | alvocidib -0.037 | Tubastatin A 0.01 | [1] -0.035 | defactinib 0.012 | rucaparib -0.056 | [2] 0.005 | encorafenib 0 | [3] 0.021 | [4] -0.015 | filanesib -0.082 | zotarolimus 0.004 | idasanutlin -0.08 | alisertib -0.021 | [5] 0.038 | gefitinib 0.005 | [6] 0.036 | lapatinib -0.048 | pictilisib 0.04

EEF1E1 (UniProt O43324)
inactive: saracatinib -0.048 | sotrastaurin -0.046 | alvocidib 0.039 | Tubastatin A 0.029 | [1] -0.032 | defactinib 0.068 | rucaparib 0.201 | [2] 0.062 | encorafenib 0.1 | [3] -0.073 | [4] -0.096 | filanesib 0.07 | zotarolimus 0.01 | idasanutlin 0.056 | alisertib -0.019 | [5] 0.021 | gefitinib 0 | [6] -0.032 | lapatinib 0 | pictilisib -0.067

EP300 (UniProt Q09472)
inactive: saracatinib 0.011 | sotrastaurin 0.039 | alvocidib -0.102 | Tubastatin A 0.043 | [1] -0.071 | defactinib -0.044 | rucaparib -0.021 | [2] 0.058 | encorafenib -0.038 | [3] -0.037 | [4] -0.104 | filanesib 0.061 | zotarolimus 0.03 | idasanutlin 0.019 | alisertib 0.041 | [5] 0.057 | gefitinib -0.01 | [6] 0.075 | lapatinib -0.009 | pictilisib -0.134

EMG1 (UniProt Q92979)
inactive: saracatinib 0.045 | sotrastaurin -0.03 | alvocidib 0.127 | Tubastatin A -0.022 | [1] 0.036 | defactinib 0.136 | rucaparib 0.146 | [2] -0.012 | encorafenib 0.029 | [3] -0.031 | [4] -0.051 | filanesib 0.001 | zotarolimus -0.005 | idasanutlin 0.055 | alisertib 0.012 | [5] -0.051 | gefitinib -0.034 | [6] -0.002 | lapatinib 0.035 | pictilisib -0.133

EIF2B5 (UniProt Q13144)
inactive: saracatinib -0.02 | sotrastaurin -0.031 | alvocidib 0.038 | Tubastatin A 0 | [1] -0.004 | defactinib 0.087 | rucaparib 0.064 | [2] 0.088 | encorafenib 0.099 | [3] -0.024 | [4] 0.035 | filanesib 0.045 | zotarolimus -0.001 | idasanutlin 0.032 | alisertib -0.127 | [5] 0.053 | gefitinib 0.024 | [6] -0.088 | lapatinib 0.041 | pictilisib 0.01

EML3 isoform 2 (UniProt Q32P44)
inactive: saracatinib -0.066 | sotrastaurin 0 | alvocidib 0.063 | Tubastatin A 0.065 | [1] -0.012 | defactinib 0.032 | rucaparib -0.194 | [2] 0.015 | encorafenib 0.05 | [3] 0.013 | [4] 0.029 | filanesib 0.166 | zotarolimus -0.052 | idasanutlin 0.142 | alisertib -0.028 | [5] 0.035 | gefitinib 0.212 | [6] -0.048 | lapatinib 0.015 | pictilisib -0.112
